Assay results published in the supplement of paper PMC7666118.
Some of the results follow.

Amino acid sequences for entries named in this document (tags omitted). A change or cut given only in a name is not applied to a line headed by its entry.
UniProt O15397, whole entry: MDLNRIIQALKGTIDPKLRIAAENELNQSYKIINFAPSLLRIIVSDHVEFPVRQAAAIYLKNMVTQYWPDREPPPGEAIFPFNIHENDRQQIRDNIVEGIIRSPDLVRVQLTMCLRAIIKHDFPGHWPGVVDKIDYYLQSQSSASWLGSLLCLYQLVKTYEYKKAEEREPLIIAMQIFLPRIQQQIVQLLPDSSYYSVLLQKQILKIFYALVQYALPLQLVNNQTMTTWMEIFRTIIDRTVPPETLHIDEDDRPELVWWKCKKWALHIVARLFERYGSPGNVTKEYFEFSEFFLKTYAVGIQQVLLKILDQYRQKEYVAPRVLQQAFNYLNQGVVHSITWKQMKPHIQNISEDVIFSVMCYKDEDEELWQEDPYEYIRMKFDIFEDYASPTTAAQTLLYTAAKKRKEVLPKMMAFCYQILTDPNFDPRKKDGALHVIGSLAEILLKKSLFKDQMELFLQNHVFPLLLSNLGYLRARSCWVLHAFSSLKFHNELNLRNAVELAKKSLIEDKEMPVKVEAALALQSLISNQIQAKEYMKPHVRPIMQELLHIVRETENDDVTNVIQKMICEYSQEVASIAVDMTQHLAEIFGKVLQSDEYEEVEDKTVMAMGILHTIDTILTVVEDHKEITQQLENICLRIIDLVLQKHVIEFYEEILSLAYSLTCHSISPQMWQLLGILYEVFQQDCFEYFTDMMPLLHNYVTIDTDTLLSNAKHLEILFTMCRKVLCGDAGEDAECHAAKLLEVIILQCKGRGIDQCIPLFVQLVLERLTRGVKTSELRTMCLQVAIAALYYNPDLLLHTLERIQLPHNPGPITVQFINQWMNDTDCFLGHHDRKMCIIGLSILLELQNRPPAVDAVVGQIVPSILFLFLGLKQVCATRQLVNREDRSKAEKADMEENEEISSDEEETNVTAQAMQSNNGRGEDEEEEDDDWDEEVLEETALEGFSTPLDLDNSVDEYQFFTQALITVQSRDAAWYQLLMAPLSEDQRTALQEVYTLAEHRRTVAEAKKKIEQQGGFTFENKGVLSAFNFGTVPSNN
UniProt Q92945: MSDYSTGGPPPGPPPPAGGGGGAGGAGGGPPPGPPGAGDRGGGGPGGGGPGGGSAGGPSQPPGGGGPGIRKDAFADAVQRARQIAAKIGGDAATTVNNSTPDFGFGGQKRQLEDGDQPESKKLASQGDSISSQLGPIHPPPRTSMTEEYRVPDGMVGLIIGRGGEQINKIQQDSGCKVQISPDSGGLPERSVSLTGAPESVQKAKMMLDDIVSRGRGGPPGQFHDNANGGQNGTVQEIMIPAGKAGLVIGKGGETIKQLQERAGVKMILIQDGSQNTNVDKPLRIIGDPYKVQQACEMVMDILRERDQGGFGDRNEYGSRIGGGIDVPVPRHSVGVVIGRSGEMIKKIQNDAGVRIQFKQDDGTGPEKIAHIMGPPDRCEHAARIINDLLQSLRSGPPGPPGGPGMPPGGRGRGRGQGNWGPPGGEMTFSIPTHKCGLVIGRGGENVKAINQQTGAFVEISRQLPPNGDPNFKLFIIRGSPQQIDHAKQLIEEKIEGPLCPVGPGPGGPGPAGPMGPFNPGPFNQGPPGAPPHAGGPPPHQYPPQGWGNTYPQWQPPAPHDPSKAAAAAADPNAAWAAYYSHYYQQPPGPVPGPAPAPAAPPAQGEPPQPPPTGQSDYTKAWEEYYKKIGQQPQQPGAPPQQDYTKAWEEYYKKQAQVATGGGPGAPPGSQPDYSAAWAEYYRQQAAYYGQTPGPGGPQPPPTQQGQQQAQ
UniProt P51991: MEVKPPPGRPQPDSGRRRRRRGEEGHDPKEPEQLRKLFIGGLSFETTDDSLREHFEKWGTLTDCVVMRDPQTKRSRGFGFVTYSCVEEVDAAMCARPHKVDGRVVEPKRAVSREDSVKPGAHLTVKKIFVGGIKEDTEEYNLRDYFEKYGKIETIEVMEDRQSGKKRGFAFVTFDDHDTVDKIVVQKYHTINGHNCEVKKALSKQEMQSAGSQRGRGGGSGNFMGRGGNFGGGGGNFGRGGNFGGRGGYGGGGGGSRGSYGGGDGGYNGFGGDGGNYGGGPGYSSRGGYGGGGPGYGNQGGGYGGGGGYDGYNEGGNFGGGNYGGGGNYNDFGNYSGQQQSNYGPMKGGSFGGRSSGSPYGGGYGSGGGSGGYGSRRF
UniProt Q8N201, whole entry: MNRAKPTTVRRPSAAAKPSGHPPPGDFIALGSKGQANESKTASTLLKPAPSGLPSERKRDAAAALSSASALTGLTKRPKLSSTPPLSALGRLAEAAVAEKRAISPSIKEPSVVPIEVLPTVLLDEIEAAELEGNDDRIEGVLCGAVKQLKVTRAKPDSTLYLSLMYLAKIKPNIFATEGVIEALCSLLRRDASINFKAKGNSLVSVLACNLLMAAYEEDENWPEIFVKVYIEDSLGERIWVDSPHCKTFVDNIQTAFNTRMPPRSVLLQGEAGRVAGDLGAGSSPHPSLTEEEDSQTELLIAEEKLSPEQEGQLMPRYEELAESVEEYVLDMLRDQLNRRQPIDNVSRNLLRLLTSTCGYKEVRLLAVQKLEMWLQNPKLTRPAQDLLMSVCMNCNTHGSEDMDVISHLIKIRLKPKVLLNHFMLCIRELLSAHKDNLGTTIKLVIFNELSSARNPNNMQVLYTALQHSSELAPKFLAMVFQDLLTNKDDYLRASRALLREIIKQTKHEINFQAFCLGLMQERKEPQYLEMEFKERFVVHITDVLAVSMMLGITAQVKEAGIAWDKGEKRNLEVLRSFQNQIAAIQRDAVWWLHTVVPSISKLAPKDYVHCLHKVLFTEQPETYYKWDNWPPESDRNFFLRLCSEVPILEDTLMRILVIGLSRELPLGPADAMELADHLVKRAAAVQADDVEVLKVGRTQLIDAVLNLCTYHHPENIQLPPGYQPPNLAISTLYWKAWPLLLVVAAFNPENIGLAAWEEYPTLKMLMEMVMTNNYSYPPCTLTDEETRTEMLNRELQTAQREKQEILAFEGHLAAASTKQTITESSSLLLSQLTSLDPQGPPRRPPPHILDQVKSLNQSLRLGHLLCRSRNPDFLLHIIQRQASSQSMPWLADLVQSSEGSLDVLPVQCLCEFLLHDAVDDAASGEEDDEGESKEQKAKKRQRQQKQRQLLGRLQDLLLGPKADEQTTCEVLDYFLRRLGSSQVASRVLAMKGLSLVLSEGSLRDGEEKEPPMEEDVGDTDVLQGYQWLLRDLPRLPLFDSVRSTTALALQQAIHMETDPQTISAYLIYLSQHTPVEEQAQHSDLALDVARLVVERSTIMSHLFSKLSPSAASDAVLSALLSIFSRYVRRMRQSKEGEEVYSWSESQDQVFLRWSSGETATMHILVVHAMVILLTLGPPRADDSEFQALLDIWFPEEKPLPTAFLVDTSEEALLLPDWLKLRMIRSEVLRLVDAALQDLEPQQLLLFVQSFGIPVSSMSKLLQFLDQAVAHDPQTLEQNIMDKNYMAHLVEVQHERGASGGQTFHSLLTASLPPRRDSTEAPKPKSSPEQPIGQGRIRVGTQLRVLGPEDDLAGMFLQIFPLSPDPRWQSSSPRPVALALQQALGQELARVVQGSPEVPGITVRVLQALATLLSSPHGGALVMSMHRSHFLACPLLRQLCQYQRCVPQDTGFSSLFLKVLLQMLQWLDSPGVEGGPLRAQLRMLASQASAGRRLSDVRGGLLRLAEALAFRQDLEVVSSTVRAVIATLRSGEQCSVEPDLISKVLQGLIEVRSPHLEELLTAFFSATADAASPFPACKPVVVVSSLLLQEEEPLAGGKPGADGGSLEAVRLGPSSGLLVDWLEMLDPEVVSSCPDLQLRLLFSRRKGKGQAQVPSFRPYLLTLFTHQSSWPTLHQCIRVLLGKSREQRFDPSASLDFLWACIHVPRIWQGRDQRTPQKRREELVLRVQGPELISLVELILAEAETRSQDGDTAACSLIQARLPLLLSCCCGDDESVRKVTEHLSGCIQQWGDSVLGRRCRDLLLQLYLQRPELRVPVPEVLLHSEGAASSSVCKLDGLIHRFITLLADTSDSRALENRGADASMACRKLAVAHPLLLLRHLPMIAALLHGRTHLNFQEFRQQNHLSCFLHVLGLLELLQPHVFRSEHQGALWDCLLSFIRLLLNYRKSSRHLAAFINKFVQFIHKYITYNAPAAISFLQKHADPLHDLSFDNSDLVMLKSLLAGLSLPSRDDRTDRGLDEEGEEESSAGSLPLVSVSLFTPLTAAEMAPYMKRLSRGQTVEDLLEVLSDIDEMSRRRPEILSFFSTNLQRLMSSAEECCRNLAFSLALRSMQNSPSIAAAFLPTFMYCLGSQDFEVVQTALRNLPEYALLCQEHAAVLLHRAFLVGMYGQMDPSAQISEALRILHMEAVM
UniProt O43299: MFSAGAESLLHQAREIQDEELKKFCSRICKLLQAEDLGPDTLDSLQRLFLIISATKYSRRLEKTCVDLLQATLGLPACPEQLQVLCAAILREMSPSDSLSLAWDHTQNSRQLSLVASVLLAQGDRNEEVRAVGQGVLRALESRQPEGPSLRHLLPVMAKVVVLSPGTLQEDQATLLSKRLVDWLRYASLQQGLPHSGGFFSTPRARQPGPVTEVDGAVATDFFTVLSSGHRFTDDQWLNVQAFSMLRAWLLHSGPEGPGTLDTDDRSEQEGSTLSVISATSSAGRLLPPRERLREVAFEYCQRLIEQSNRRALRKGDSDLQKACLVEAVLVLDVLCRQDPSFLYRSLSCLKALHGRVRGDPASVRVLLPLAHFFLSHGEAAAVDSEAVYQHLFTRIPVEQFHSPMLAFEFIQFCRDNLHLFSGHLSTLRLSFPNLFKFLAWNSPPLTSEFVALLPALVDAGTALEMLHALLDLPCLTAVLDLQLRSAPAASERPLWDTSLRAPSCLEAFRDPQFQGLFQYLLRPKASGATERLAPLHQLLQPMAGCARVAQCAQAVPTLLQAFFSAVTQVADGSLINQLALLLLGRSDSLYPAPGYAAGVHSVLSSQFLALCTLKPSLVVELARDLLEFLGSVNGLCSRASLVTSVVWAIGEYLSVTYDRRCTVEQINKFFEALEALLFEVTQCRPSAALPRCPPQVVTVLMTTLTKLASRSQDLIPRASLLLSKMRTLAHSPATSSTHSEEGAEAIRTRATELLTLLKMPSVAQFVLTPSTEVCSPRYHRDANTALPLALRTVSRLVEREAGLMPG
UniProt Q96A47: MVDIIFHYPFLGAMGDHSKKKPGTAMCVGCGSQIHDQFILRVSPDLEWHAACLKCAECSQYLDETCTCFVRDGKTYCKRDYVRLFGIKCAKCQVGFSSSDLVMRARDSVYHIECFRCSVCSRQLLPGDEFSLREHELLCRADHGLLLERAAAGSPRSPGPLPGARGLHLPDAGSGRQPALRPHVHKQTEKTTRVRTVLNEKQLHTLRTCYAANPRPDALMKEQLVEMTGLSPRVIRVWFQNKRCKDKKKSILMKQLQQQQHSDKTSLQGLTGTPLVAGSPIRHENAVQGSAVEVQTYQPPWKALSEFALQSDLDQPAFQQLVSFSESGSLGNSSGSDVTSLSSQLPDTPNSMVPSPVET
UniProt Q9UNL4, whole entry: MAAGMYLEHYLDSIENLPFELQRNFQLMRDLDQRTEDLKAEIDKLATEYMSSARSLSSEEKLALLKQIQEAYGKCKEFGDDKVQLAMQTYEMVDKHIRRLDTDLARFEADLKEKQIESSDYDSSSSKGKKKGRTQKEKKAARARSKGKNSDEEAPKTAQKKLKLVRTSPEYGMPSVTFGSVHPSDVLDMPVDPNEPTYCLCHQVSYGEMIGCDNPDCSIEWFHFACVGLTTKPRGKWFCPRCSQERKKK
UniProt Q9NVR2, whole entry: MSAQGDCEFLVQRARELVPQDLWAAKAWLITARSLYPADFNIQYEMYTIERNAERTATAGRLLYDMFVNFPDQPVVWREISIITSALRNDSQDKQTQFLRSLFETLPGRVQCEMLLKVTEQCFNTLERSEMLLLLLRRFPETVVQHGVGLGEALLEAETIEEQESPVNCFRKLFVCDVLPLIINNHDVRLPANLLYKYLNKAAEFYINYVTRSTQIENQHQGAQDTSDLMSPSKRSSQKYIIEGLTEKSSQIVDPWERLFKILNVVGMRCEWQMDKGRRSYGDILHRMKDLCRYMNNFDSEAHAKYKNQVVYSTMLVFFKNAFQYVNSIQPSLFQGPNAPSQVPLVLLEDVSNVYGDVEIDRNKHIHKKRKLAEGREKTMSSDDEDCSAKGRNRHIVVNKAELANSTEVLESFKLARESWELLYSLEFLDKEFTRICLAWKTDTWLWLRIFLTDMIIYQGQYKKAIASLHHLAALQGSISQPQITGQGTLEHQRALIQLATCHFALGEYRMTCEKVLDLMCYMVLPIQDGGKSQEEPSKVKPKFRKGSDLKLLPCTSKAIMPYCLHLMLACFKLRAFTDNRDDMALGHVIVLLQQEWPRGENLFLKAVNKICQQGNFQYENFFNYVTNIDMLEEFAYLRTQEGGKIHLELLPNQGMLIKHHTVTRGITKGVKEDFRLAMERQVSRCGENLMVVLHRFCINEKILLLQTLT

What follows are targets tested with COc1ccc(Cn2ccc3ccc(C(=O)NO)cc32)cc1 (assay: dose-dependent thermal stabilisation call (2D-TPP, DLPTP, 10% FDR) (binary (1 = stabilised)); higher = stabilised by the compound). Details: system: HL-60 intact cells; concentration range 0.04-10 µM.

Target | dose-dependent thermal stabilisation call
HSP90AB1 (UniProt P08238) | inactive: 0
ITGA4 (UniProt P13612) | inactive: 0
ITPA (UniProt Q9BY32) | inactive: 0
ILVBL (UniProt A1L0T0) | inactive: 0
KBTBD4 (UniProt Q9NVX7) | inactive: 0
IDH2 (UniProt P48735) | inactive: 0
KIAA0323 (UniProt O15037) | inactive: 0
IDI1 (UniProt Q13907) | inactive: 0
IRF2 (UniProt P14316) | inactive: 0
HSD17B4 (UniProt P51659) | inactive: 0
IPO8 (UniProt O15397) | inactive: 0
KHSRP (UniProt Q92945) | inactive: 0
HNRNPA3 (UniProt P51991) | inactive: 0
ITGB1 (UniProt P05556) | inactive: 0
JAGN1 (UniProt Q8N5M9) | inactive: 0
JMJD1A (UniProt Q9Y4C1) | inactive: 0
IQGAP3 (UniProt Q86VI3) | inactive: 0
IFRD2 (UniProt Q12894) | inactive: 0
INTS1 (UniProt Q8N201) | inactive: 0
IKBKB (UniProt O14920) | inactive: 0
KIAA0415 (UniProt O43299) | inactive: 0
IFI16 (UniProt Q16666) | inactive: 0
ISL2 (UniProt Q96A47) | inactive: 0
ING4 (UniProt Q9UNL4) | inactive: 0
HP1BP3 (UniProt Q5SSJ5) | inactive: 0
INTS10 (UniProt Q9NVR2) | inactive: 0
IFT88 (UniProt Q13099) | inactive: 0

Not a retest: an excerpt of the list.
Target | dose-dependent thermal stabilisation call
IRF2 (UniProt P14316) | inactive: 0
HSD17B4 (UniProt P51659) | inactive: 0
